# In the supplement of paper PMC8728848:
# The list shows a part of the results.
# What was measured:
# Assay in all cases: glycan array binding signal (z-score within array); higher = stronger binding
# Settings in all cases: glycan notation: IUPAC condensed, linker removed
# [1] = biological target: Fuc(a1-2)[Gal(a1-3)]Gal(b1-4)GlcNAc(b1-2)Man(a1-3)[Fuc(a1-2)[Gal(a1-3)]Gal(b1-4)GlcNAc(b1-2)Man(a1-6)]Man(b1-4)GlcNAc(b1-4)GlcNAc
# In short: (§1)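 Glycan array data were curated from 3228 arrays in the Consortium for Functional Glycomics database and kept only where the protein sequence was available. Glycan names were converted to IUPAC-condensed notation, and columns mapping to the same glycan were averaged. The binding signal is a within-array Z-score, averaged across arrays of the same protein sequence at different concentrations or buffers and across linkers. Negative Z-scores can be read as non-binding.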
# [2] = biological target: Fuc(a1-2)[Gal(a1-3)]Gal(b1-4)GlcNAc(b1-2)Man(a1-3)[Fuc(a1-2)[Gal(a1-3)]Gal(b1-4)GlcNAc(b1-2)Man(a1-6)]Man(b1-4)GlcNAc(b1-4)[Fuc(a1-6)]GlcNAc
# In short: as §1
# [3] = biological target: Fuc(a1-2)[Gal(a1-3)]Gal(b1-4)GlcNAc(b1-3)GalNAc
# In short: as §1
# [4] = biological target: Fuc(a1-2)[Gal(a1-3)]Gal(b1-4)GlcNAc(b1-6)GalNAc
# In short: as §1
# [5] = biological target: Fuc(a1-2)[Gal(a1-3)]Gal(b1-4)[Fuc(a1-3)]Glc
# In short: as §1
# [6] = biological target: Fuc(a1-2)[Gal(a1-3)]Gal(b1-4)[Fuc(a1-3)]GlcNAc
# In short: as §1
# [7] = biological target: Fuc(a1-2)[Gal(a1-3)]Gal(b1-4)[Fuc(a1-3)]GlcNAc(b1-3)GalNAc
# In short: as §1
# [8] = biological target: Fuc(a1-2)[Gal(a1-4)]Gal(b1-4)GlcNAc
# In short: as §1
# [9] = biological target: Fuc(a1-2)[GalNAc(a1-3)]Gal
# In short: as §1
# [10] = biological target: Fuc(a1-2)[GalNAc(a1-3)]Gal(b1-3)GalNAc(a1-3)[Fuc(a1-2)]Gal(b1-4)GlcNAc
# In short: as §1
# [11] = biological target: Fuc(a1-2)[GalNAc(a1-3)]Gal(b1-3)GalNAc(b1-3)Gal(a1-4)Gal(b1-4)Glc
# In short: as §1
# [12] = biological target: Fuc(a1-2)[GalNAc(a1-3)]Gal(b1-3)GlcNAc
# In short: as §1
# [13] = biological target: Fuc(a1-2)[GalNAc(a1-3)]Gal(b1-3)GlcNAc(b1-2)Man(a1-3)[Fuc(a1-2)[GalNAc(a1-3)]Gal(b1-3)GlcNAc(b1-2)Man(a1-6)]Man(b1-4)GlcNAc(b1-4)GlcNAc
# In short: as §1
# [14] = biological target: Fuc(a1-2)[GalNAc(a1-3)]Gal(b1-3)GlcNAc(b1-2)Man(a1-3)[Fuc(a1-2)[GalNAc(a1-3)]Gal(b1-3)GlcNAc(b1-2)Man(a1-6)]Man(b1-4)GlcNAc(b1-4)[Fuc(a1-6)]GlcNAc
# In short: as §1
# [15] = biological target: Fuc(a1-2)[GalNAc(a1-3)]Gal(b1-3)GlcNAc(b1-3)GalNAc
# In short: as §1
# [16] = biological target: Fuc(a1-2)[GalNAc(a1-3)]Gal(b1-3)GlcNAc(b1-6)GalNAc
# In short: as §1
# [17] = biological target: Fuc(a1-2)[GalNAc(a1-3)]Gal(b1-4)Glc
# In short: as §1
# [18] = biological target: Fuc(a1-2)[GalNAc(a1-3)]Gal(b1-4)GlcNAc
# In short: as §1
# [19] = biological target: Fuc(a1-2)[GalNAc(a1-3)]Gal(b1-4)GlcNAc(b1-2)Man
# In short: as §1
# [20] = biological target: Fuc(a1-2)[GalNAc(a1-3)]Gal(b1-4)GlcNAc(b1-2)Man(a1-3)[Fuc(a1-2)[GalNAc(a1-3)]Gal(b1-4)GlcNAc(b1-2)Man(a1-6)]Man(b1-4)GlcNAc(b1-4)GlcNAc
# In short: as §1
# [21] = biological target: Fuc(a1-2)[GalNAc(a1-3)]Gal(b1-4)GlcNAc(b1-2)Man(a1-3)[Fuc(a1-2)[GalNAc(a1-3)]Gal(b1-4)GlcNAc(b1-2)Man(a1-6)]Man(b1-4)GlcNAc(b1-4)[Fuc(a1-6)]GlcNAc
# In short: as §1
# [22] = biological target: Fuc(a1-2)[GalNAc(a1-3)]Gal(b1-4)GlcNAc(b1-3)Gal(b1-4)GlcNAc
# In short: as §1
# [23] = biological target: Fuc(a1-2)[GalNAc(a1-3)]Gal(b1-4)GlcNAc(b1-3)Gal(b1-4)GlcNAc(b1-3)Gal(b1-4)GlcNAc
# In short: as §1
# [24] = biological target: Fuc(a1-2)[GalNAc(a1-3)]Gal(b1-4)GlcNAc(b1-3)GalNAc
# In short: as §1
# [25] = biological target: Fuc(a1-2)[GalNAc(a1-3)]Gal(b1-4)GlcNAc(b1-3)[Fuc(a1-2)[GalNAc(a1-3)]Gal(b1-4)GlcNAc(b1-6)]GalNAc
# In short: as §1
# [26] = biological target: Fuc(a1-2)[GalNAc(a1-3)]Gal(b1-4)GlcNAc(b1-6)GalNAc
# In short: as §1
# [27] = biological target: Fuc(a1-2)[GalNAc(a1-3)]Gal(b1-4)[Fuc(a1-3)]GlcNAc
# In short: as §1
# [28] = biological target: Fuc(a1-2)[GalNAc(a1-3)]Gal(b1-4)[Fuc(a1-3)]GlcNAc(b1-3)GalNAc
# In short: as §1
# [29] = biological target: Fuc(a1-2)[GalNAc(a1-4)]Gal(b1-4)GlcNAc
# In short: as §1
# [30] = biological target: Fuc(a1-2)[GalNAc(b1-3)]Gal
# In short: as §1
# Fuc(a1-3)GlcNAc = biological target: Fuc(a1-3)GlcNAc
# In short: as §1
# [31] = biological target: Fuc(a1-3)[Gal(b1-4)]Glc6S
# In short: as §1
# [32] = biological target: Fuc(a1-3)[Gal(b1-4)]GlcNAc
# In short: as §1
# [33] = biological target: Fuc(a1-3)[Gal(b1-4)]GlcNAc(b1-2)Man
# In short: as §1
# [34] = biological target: Fuc(a1-3)[Gal(b1-4)]GlcNAc(b1-2)Man(a1-3)[Fuc(a1-3)[Gal(b1-4)]GlcNAc(b1-2)Man(a1-6)]Man(b1-4)GlcNAc(b1-4)GlcNAc
# In short: as §1
# [35] = biological target: Fuc(a1-3)[Gal(b1-4)]GlcNAc(b1-2)Man(a1-3)[Fuc(a1-3)[Gal(b1-4)]GlcNAc(b1-2)Man(a1-6)]Man(b1-4)GlcNAc(b1-4)[Fuc(a1-6)]GlcNAc
# In short: as §1
# [36] = biological target: Fuc(a1-3)[Gal(b1-4)]GlcNAc(b1-3)Gal(b1-3)[Fuc(a1-4)]GlcNAc
# In short: as §1
# [37] = biological target: Fuc(a1-3)[Gal(b1-4)]GlcNAc(b1-3)Gal(b1-4)[Fuc(a1-3)]GlcNAc
# In short: as §1
# [38] = biological target: Fuc(a1-3)[Gal(b1-4)]GlcNAc(b1-3)Gal(b1-4)[Fuc(a1-3)]GlcNAc(b1-3)Gal(b1-4)[Fuc(a1-3)]GlcNAc
# In short: as §1
# [39] = biological target: Fuc(a1-3)[Gal(b1-4)]GlcNAc(b1-3)GalNAc
# In short: as §1
# [40] = biological target: Fuc(a1-3)[Gal(b1-4)]GlcNAc(b1-6)GalNAc
# In short: as §1
# [41] = biological target: Fuc(a1-3)[Gal(b1-4)]GlcNAc(b1-6)[Gal(b1-3)GlcNAc(b1-3)]Gal(b1-4)Glc
# In short: as §1
# [42] = biological target: Fuc(a1-3)[Gal(b1-4)]GlcNAc6S
# In short: as §1
# [43] = biological target: Fuc(a1-3)[Gal3S(b1-4)]Glc
# In short: as §1
# [44] = biological target: Fuc(a1-3)[Gal3S(b1-4)]GlcNAc
# In short: as §1
binder,measurement,setting,value
"AntigenI/IIA3VP1 (Streptococcus mutans), C9E3B4 (protein) AANEADYQAKLTAYQTELARVQKANADAKAAYEAAVAANNAANAALTAENTAIKKRNADAKADYEAKLAKYQADLAKYQKDLADYPVKLKAYEDEQASIKAALAELEKHKNEDGNLTEPSAQNLVYDLEPNANLSLTTDGKFLKASAVDDAFSKSTSKAKYDQKILQLDDLDITNLEQSNDVASSMELYGNFGDKAGWSTTVSNNSQVKWGSVLLERGQSATATYTNLQNSYYNGKKISKIVYKYTVDPKSKFQGQKVWLGIFTDPTLGVFASAYTGQVEKNTSIFIKNEFTFYDEDGKPINFDNALLSVASLNREHNSIEMAKDYSGKFVKISGSSIGEKNGMIYATDTLNFKQGEGGSRWTMYKNSQAGSGWDSSDAPNSWYGAGAIKMSGPNNYVTVGATSATNVMPVSDMPVVPGKDNTDGKKPNIWYSLNGKIRAVNVPKVTKEKPTPPVKPTAPTKPTYETEKPLKPAPVAPNYEKEPTPPTRLEHHHHHH",glycan array binding signal (z-score),[1],0.174
same,glycan array binding signal (z-score),[2],3.1
same,glycan array binding signal (z-score),[3],-0.213
same,glycan array binding signal (z-score),[4],-0.017
same,glycan array binding signal (z-score),[5],0.825
same,glycan array binding signal (z-score),[6],-0.161
same,glycan array binding signal (z-score),[7],-0.146
same,glycan array binding signal (z-score),[8],-0.2
same,glycan array binding signal (z-score),[9],-1.13
same,glycan array binding signal (z-score),[10],-0.354
same,glycan array binding signal (z-score),[11],-0.495
same,glycan array binding signal (z-score),[12],0.35
same,glycan array binding signal (z-score),[13],1.03
same,glycan array binding signal (z-score),[14],-0.775
same,glycan array binding signal (z-score),[15],0.739
same,glycan array binding signal (z-score),[16],-0.332
same,glycan array binding signal (z-score),[17],-0.73
same,glycan array binding signal (z-score),[18],-0.846
same,glycan array binding signal (z-score),[19],-0.981
same,glycan array binding signal (z-score),[20],1.01
same,glycan array binding signal (z-score),[21],0.155
same,glycan array binding signal (z-score),[22],-0.716
same,glycan array binding signal (z-score),[23],0.177
same,glycan array binding signal (z-score),[24],0.387
same,glycan array binding signal (z-score),[25],0.2
same,glycan array binding signal (z-score),[26],-0.877
same,glycan array binding signal (z-score),[27],0.39
same,glycan array binding signal (z-score),[28],1.57
same,glycan array binding signal (z-score),[29],0.888
same,glycan array binding signal (z-score),[30],0.107
same,glycan array binding signal (z-score),Fuc(a1-3)GlcNAc,0.171
same,glycan array binding signal (z-score),[31],-0.335
same,glycan array binding signal (z-score),[32],0.825
same,glycan array binding signal (z-score),[33],-0.375
same,glycan array binding signal (z-score),[34],0.126
same,glycan array binding signal (z-score),[35],0.761
same,glycan array binding signal (z-score),[36],-0.626
same,glycan array binding signal (z-score),[37],0.907
same,glycan array binding signal (z-score),[38],-0.372
same,glycan array binding signal (z-score),[39],2.64
same,glycan array binding signal (z-score),[40],0.145
same,glycan array binding signal (z-score),[41],-1.16
same,glycan array binding signal (z-score),[42],0.21
same,glycan array binding signal (z-score),[43],0.537
same,glycan array binding signal (z-score),[44],0.994

# For convenience, part of the list above:
binder,measurement,setting,value
"AntigenI/IIA3VP1 (Streptococcus mutans), C9E3B4 (protein) AANEADYQAKLTAYQTELARVQKANADAKAAYEAAVAANNAANAALTAENTAIKKRNADAKADYEAKLAKYQADLAKYQKDLADYPVKLKAYEDEQASIKAALAELEKHKNEDGNLTEPSAQNLVYDLEPNANLSLTTDGKFLKASAVDDAFSKSTSKAKYDQKILQLDDLDITNLEQSNDVASSMELYGNFGDKAGWSTTVSNNSQVKWGSVLLERGQSATATYTNLQNSYYNGKKISKIVYKYTVDPKSKFQGQKVWLGIFTDPTLGVFASAYTGQVEKNTSIFIKNEFTFYDEDGKPINFDNALLSVASLNREHNSIEMAKDYSGKFVKISGSSIGEKNGMIYATDTLNFKQGEGGSRWTMYKNSQAGSGWDSSDAPNSWYGAGAIKMSGPNNYVTVGATSATNVMPVSDMPVVPGKDNTDGKKPNIWYSLNGKIRAVNVPKVTKEKPTPPVKPTAPTKPTYETEKPLKPAPVAPNYEKEPTPPTRLEHHHHHH",glycan array binding signal (z-score),[16],-0.332
same,glycan array binding signal (z-score),[17],-0.73
same,glycan array binding signal (z-score),[18],-0.846
same,glycan array binding signal (z-score),[19],-0.981
same,glycan array binding signal (z-score),[20],1.01
same,glycan array binding signal (z-score),[21],0.155
same,glycan array binding signal (z-score),[22],-0.716
same,glycan array binding signal (z-score),[23],0.177
same,glycan array binding signal (z-score),[24],0.387
same,glycan array binding signal (z-score),[25],0.2
same,glycan array binding signal (z-score),[26],-0.877
